Laboratory results taken from the supplement of paper PMC11150407.
Hit rate of the full screen: of about 3,000 compounds, about 45 (2%) showed an effect of 50% or more. Some of the results follow.

These molecules were tested on MOLM1 and UCSD/AML1 (averaged) (assay: cell viability relative to DMSO control (POC); higher = less growth inhibition). Conditions: 1 µM; 72 h.
Protocol: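 Primary viability screen in the 3q26 EVI1-high AML cell lines MOLM1 and UCSD/AML1, compounds at 1 uM for 72 h. ATP CellTiter-Glo read-out given as percent viable over DMSO control (POC), averaged over duplicates. This mapping covers the TimTec NDL-3000 natural derivative library, whose compounds are identified by TimTec catalogue codes (ST...).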
Molecule `O=C(Cn1c(=O)cc(C(=O)N2CCCC2)c2ccccc21)Nc1ccc(Br)cc1` has a cell viability of 96.6%.
`COC(=O)c1ccc2c(c1)C(=O)/C(=C/c1ccc(O)c(OC)c1)O2` showed a cell viability of 84.6%.
`COc1cc(-c2nnc(NC(=O)c3ccc(C)cc3)o2)cc(OC)c1OC` was tested, and the cell viability was 101%.
Work on `COc1cc(OC)cc(C(=O)Nc2ccc(NC(C)=O)cc2)c1` yielded a cell viability of 106%.
For `Cn1c2ccccc2c2cc(/C=C/C(=O)c3ccc4ccccc4c3O)ccc21`, the cell viability was 106%.
In the case of `Cc1ccc(COc2ccc(C3Nc4ccccc4NC4=C3C(=O)CC(C)(C)C4)cc2Cl)cc1` (configuration not stated), the cell viability is reported as 105%.
`O=C(CCNc1ccc(Oc2ccc(Cl)cc2)cc1)c1cc2ccccc2oc1=O` was tested, and the cell viability was 92.7%.
`CCCOc1ccc(-c2cc(CSc3nc4c(=O)[nH]cnc4n3C)c(C)o2)cc1` gave a cell viability of 97.4%.
`C=CCOC(=O)C1=C(C)NC(S)=C(C#N)C1c1ccc(OC)cc1` (configuration not stated) showed a cell viability of 112%.
With `COc1ccc(CSc2nc3c(=O)[nH]cnc3n2-c2ccc(C)cc2)cc1` the cell viability was 99.3%.
With `CC(C)(C)c1ccc(-c2oc3ccccc3c(=O)c2OCC#N)cc1` the cell viability was 88.8%.
`O=C(Cn1c(=O)cc(C(=O)N2CCOCC2)c2ccccc21)Nc1ccccc1` was tested, and the cell viability was 97.6%.
For `O=C(CCl)NC(Cc1c[nH]c2cc(OCc3ccccc3)ccc12)C(=O)O` (configuration not stated), the cell viability was 101%.
`Cn1c(=O)c(C(=O)Nc2cccc(Cl)c2Cl)c(O)c2ccccc21` gave a cell viability of 110%.
Work on `N#CC1=C(N)Oc2cc(O)ccc2C1c1cccc([N+](=O)[O-])c1` (configuration not stated) yielded a cell viability of 101%.
Work on `COc1ccc(/C=C2/N=C(c3ccccc3)N(Nc3nc(Nc4ccc([N+](=O)[O-])cc4O)nc(Nc4ccc([N+](=O)[O-])cc4O)n3)C2=O)cc1` yielded a cell viability of 87.3%.
Work on `CCCC(NC(=O)C(C)N)C(=O)O` (configuration not stated) yielded a cell viability of 116%.
In the case of `Cc1ccc2c(CN3CCN(Cc4ccc(F)cc4Cl)CC3)cc(=O)oc2c1`, the cell viability is reported as 122%.
`O=C(CSc1nc2c(=O)[nH]cnc2n1-c1ccccc1)Nc1ccc(F)cc1` showed a cell viability of 96.9%.
`COc1ccc(-c2cn3c4c(=O)n(C)c(=O)n(C)c4nc3n2Cc2ccccn2)cc1` gave a cell viability of 99.1%.
In the case of `O=C(O)c1ccc2cccc(O)c2n1`, the cell viability is reported as 92.5%.
In the case of `COC(=O)c1ccc(C(=O)NCCc2c(C)[nH]c3ccc(OCc4ccccc4)cc23)cc1`, the cell viability is reported as 105%.
`CCOc1cc(C(=O)Nc2cccnc2)cc(OCC)c1OCC` gave a cell viability of 103%.
Molecule `Cc1[nH]c2c(Cl)cccc2c1CCNC(=O)c1cc([N+](=O)[O-])cc([N+](=O)[O-])c1` has a cell viability of 92.7%.
Work on `CCOC(=O)c1c(CSc2ccc(C)cc2)n(C)c2cc(Br)c(OC(C)=O)cc12` yielded a cell viability of 77.6%.
Work on `O=C1C2OCC(O2)C2C1[C@H]2C(=O)C12CC3CC(CC(C3)C1)C2` (some centres not stated) yielded a cell viability of 88.9%.
`COc1ccc(C(=O)Nc2ccc3ncn(C)c3c2)cc1OC` was tested, and the cell viability was 101%.
For `COC(=O)C1=C(C)NC(SCC(=O)c2ccc3c(c2)OCO3)=C(C#N)C1c1cccs1` (configuration not stated), the cell viability was 95.7%.
Work on `Cc1cc(C)c2c(CN3CCC4(CC3)OCCO4)cc(=O)oc2c1` yielded a cell viability of 95.6%.
Molecule `COc1ccccc1-c1nc(CSc2nc3c(=O)[nH]cnc3n2-c2ccc(C)cc2)c(C)o1` has a cell viability of 103%.
Molecule `COc1ccccc1-c1oc2ccccc2c(=O)c1OC(=O)c1cccs1` has a cell viability of 90.1%.
`CCOC(=O)c1c(C)n(CCOc2ccccc2Cl)c2ccc(O)cc12` showed a cell viability of 94.8%.
Work on `CCN(CC)c1ccc2cc(-c3ccc(OC)cc3)c(=O)oc2c1` yielded a cell viability of 88.7%.
`CCN(CC)C(=O)c1cc(=O)n(CC(=O)Nc2ccc(Br)cc2F)c2ccccc12` gave a cell viability of 98.8%.
In the case of `O=C(OCc1ccccc1)C1CCCN1c1nc(-c2ccc(F)cc2)cs1` (configuration not stated), the cell viability is reported as 101%.
With `COc1ccc(/C=C2\CCc3ccccc3C2=O)cc1COc1ccc([N+](=O)[O-])c(C)c1` the cell viability was 106%.
`O=c1[nH]cc(I)c(=O)[nH]1` was tested, and the cell viability was 98.6%.
`Cn1c(COc2ccccc2)nnc1SCc1cc(=O)[nH]c2ccccc12` showed a cell viability of 110%.
`COc1ccc2c(C)c(CCC(=O)NCc3ccc4c(c3)OCO4)c(=O)oc2c1` gave a cell viability of 101%.
`CCC(CC)NCc1cc(OC)c(O)c(OC)c1` showed a cell viability of 101%.
For `COc1cc(OC)cc(C(=O)N2CCN(Cc3ccccc3F)CC2)c1`, the cell viability was 102%.
For `COCCC(=O)[C@@]12O[C@@H]1CC1C3CC=C4CC(O)CCC4(C)C3CCC12C` (some centres not stated), the cell viability was 99.1%.
In the case of `Cn1c(SCC(=O)Nc2ccccc2C(F)(F)F)nc2c(=O)[nH]cnc21`, the cell viability is reported as 97.5%.
For `COc1ccc(S(=O)(=O)NCC2(C)CCCC3(C)c4ccc(C(C)C)cc4CCC23)cc1C` (configuration not stated), the cell viability was 91.9%.
Work on `O=C(CSc1nc2ccccc2c(=O)[nH]1)NCc1ccc2c(c1)OCO2` yielded a cell viability of 103%.
In the case of `COc1cc(C(=O)Nc2cc(C(F)(F)F)ccc2N2CCCCC2)ccc1Oc1cc([N+](=O)[O-])cc(C(F)(F)F)c1`, the cell viability is reported as 103%.
Molecule `COc1cc(C2NC(=O)CCC2[N+](=O)[O-])c(Br)c(OC)c1OC` (configuration not stated) has a cell viability of 123%.
`O=C(/C=C/c1ccc(NC(=O)c2cc(N3C(=O)c4ccccc4C3=O)cc(N3C(=O)c4ccccc4C3=O)c2)cc1)c1ccccc1` showed a cell viability of 102%.
`O=C(O)C(Cc1ccccc1)N1C(=O)c2ccccc2C1=O` (configuration not stated) showed a cell viability of 108%.
`Cn1c2c(c(=O)n(C)c1=O)C(c1ccc(Cl)cc1)C(C#N)=C(N)O2` (configuration not stated) was tested, and the cell viability was 93.6%.
`COC(=O)Nc1c(C(=O)OC)cc(OC)c(OC)c1OC` showed a cell viability of 89.1%.
Molecule `O=C(O)c1cc(-c2ccc(Cl)cc2)nc2ccccc12` has a cell viability of 90.6%.
In the case of `O=C(Nc1ccnc(=O)[nH]1)c1ccccc1`, the cell viability is reported as 100%.
Molecule `O=C(CCNc1ccc(C(=O)N2CCCCC2)cc1)c1cc2ccccc2oc1=O` has a cell viability of 91.7%.
`O=c1oc2ccccc2cc1-c1ccc(Cl)cc1` gave a cell viability of 87.8%.
`N#CCOc1ccc2c(=O)c(Oc3ccccc3Cl)coc2c1` showed a cell viability of 104%.
With `COc1cc(CCC(=O)N2CCCc3cc(Br)ccc32)cc(OC)c1OC` the cell viability was 87.4%.
In the case of `CCOc1ccc2oc(=O)cc(CN3CCNCC3)c2c1`, the cell viability is reported as 90.2%.
With `CC1(C)Cn2c(nc(=O)c(Br)c2N)S1` the cell viability was 98.6%.
In the case of `COc1cc(C2CC(=O)Nc3nc(N)sc32)cc(OC)c1O` (configuration not stated), the cell viability is reported as 112%.
Molecule `CCOc1ccc(-c2oc3ccccc3c(=O)c2O)cc1OCC` has a cell viability of 94%.
`COc1ccc2c(CN3CCc4ccccc4C3)cc(=O)oc2c1` was tested, and the cell viability was 97.1%.
`O=C(O)CC(NCc1ccccc1)C(=O)O` (configuration not stated) gave a cell viability of 103%.
`COc1cc(OC)cc(C(=O)Nc2sc(Nc3ccc(C)cc3)nc2C(N)=O)c1` was tested, and the cell viability was 95.8%.
Work on `COc1cc(OC)cc(C(=O)Nc2ccc3c(c2)NC(=O)C(C)O3)c1` (configuration not stated) yielded a cell viability of 97.5%.
For `CCCNC(=O)c1cc(=O)n(CC(=O)Nc2ccc(F)cc2)c2ccccc12`, the cell viability was 106%.
For `COc1ccc2[nH]c(C)c(CCNC(=O)C(F)(F)F)c2c1`, the cell viability was 102%.
For `CCCNC(=O)c1cc(=O)n(CC(=O)Nc2ccc(Br)cc2F)c2ccccc12`, the cell viability was 87.6%.
Molecule `CCc1ccc2oc(-c3ccccc3)cc(=NCCO)c2c1` has a cell viability of 96.3%.
`COCCOC(=O)c1c(C)n(CCOCc2ccc(Cl)cc2)c2ccc(O)cc12` was tested, and the cell viability was 90.9%.
Work on `Cc1oc(-c2ccc(Cl)cc2)nc1CSc1nc2c(=O)[nH]cnc2n1-c1ccccc1` yielded a cell viability of 104%.
`O=C1CC(n2nnnc2-c2ccccc2Cl)C2COC1O2` (configuration not stated) was tested, and the cell viability was 64.4%.
`Cc1ccccc1C(=O)NCCc1c(C)[nH]c2c(C)ccc(F)c12` showed a cell viability of 84.5%.
With `CCn1c(SCC(=O)Nc2ccccc2C(F)(F)F)nc2c(=O)[nH]cnc21` the cell viability was 93.4%.
With `COc1ccc(CCNC(=O)COc2ccc(C)cc2)cc1OC` the cell viability was 101%.
For `C=C(C)C1CCC2(C(=O)OC)CCC3(C)C(CCC4C5(C)CCC(=O)C(C)(C)C5CCC43C)C12` (configuration not stated), the cell viability was 99%.
`CNC(=O)c1cc(=O)n(CC(=O)Nc2cccc(C(F)(F)F)c2)c2ccccc12` was tested, and the cell viability was 116%.
`CCOC(=O)C(CC)Oc1ccc2c(=O)c(Oc3ccccc3Cl)coc2c1` (configuration not stated) showed a cell viability of 94.4%.
For `COC(=O)C(Cc1ccccc1)NC(=O)C(N)CC(=O)O` (configuration not stated), the cell viability was 106%.
In the case of `COc1cc2c(cc1OC)C(Cc1ccccc1)NCC2` (configuration not stated), the cell viability is reported as 94.6%.
Molecule `CCc1[nH]nc2c1C(c1ccc(O)c(OC)c1)C(C#N)=C(N)O2` (configuration not stated) has a cell viability of 107%.
`Cc1cc2c(C(C)C)c(O)c(O)c(/C=N/Nc3nnnn3-c3ccccc3)c2c(O)c1-c1c(C)cc2c(C(C)C)c(O)c(O)c(/C=N/Nc3nnnn3-c3ccccc3)c2c1O` showed a cell viability of 86.1%.
In the case of `CCc1c(O)c2c(C)cc(C)cc2[nH]c1=O`, the cell viability is reported as 94.9%.
`CC(=O)OC1CCC2(C)C(CCC3(C)C2C(=O)C=C2C4CC(C)(C(=O)Nc5ccc(C)cc5)CCC4(C)CCC23C)C1(C)C` (configuration not stated) showed a cell viability of 96.2%.
In the case of `Cc1ccc(NC(=O)CN2C(=O)S/C(=C/c3cc4c(cc3Cl)OCO4)C2=O)cc1C`, the cell viability is reported as 93.4%.
Work on `CC1(C)CCC23CCC4(C)C(CCC5C6(C)CCC(O)C(C)(C)C6CCC54C)C2C1OC3` (configuration not stated) yielded a cell viability of 87.5%.
Work on `COc1ccc(/C=C/C=C/C(=O)O)cc1OC` yielded a cell viability of 97.4%.
`Cc1[nH]c2ccc(OC(F)(F)F)cc2c1CCNC(=O)c1cccc([N+](=O)[O-])c1` showed a cell viability of 84.3%.
In the case of `O=C(CCNc1cccc(F)c1)c1ccc2c(c1)OCO2`, the cell viability is reported as 105%.
In the case of `CCCCCOC(=O)C1=C(C)NC2=C(C(=O)CC(C)(C)C2)C1c1cc(Cl)c(O)c(OC)c1` (configuration not stated), the cell viability is reported as 101%.
`Cc1ccc2c(CN3CCN(Cc4cccc(F)c4)CC3)cc(=O)oc2c1` showed a cell viability of 102%.
For `COc1ccc(C(=O)N2CCN(c3cccc(Cl)c3)CC2)cc1OC`, the cell viability was 99%.
For `O=C1ON=C(c2cccc([N+](=O)[O-])c2)/C1=C/c1ccc2c(c1)OCO2`, the cell viability was 102%.
Molecule `COc1ccc(C(=O)Nc2ccccc2C(=O)OCC(=O)c2ccc(Cl)cc2)cc1OC` has a cell viability of 93.1%.
`CCOC(=O)C(=O)Nc1ccccc1` showed a cell viability of 92.2%.
In the case of `O=C(CNC(=O)OCc1ccccc1)NC(Cc1ccc(O)cc1)C(=O)O` (configuration not stated), the cell viability is reported as 100%.
Work on `N#CC1=C(N)Oc2c(c(=O)oc3ccccc23)C12C(=O)N(Cc1ccc(Cl)cc1)c1ccccc12` (configuration not stated) yielded a cell viability of 98.4%.
For `Cc1ccc(C2=NOC(=O)/C2=C\c2ccc3c(c2)OCO3)cc1C`, the cell viability was 100%.
`O=C(Cn1c(=O)cc(C(=O)N2CCCC2)c2ccccc21)Nc1ccccc1F` gave a cell viability of 97.3%.
For `COc1ccc(-c2nc(CSc3nc4c(=O)[nH]cnc4n3-c3ccc(C)cc3)c(C)o2)cc1`, the cell viability was 101%.
With `Cc1nc2ccccc2c(C(=O)O)c1O` the cell viability was 106%.
For `O=C(Cn1c(=O)cc(C(=O)N2CCCCC2)c2ccccc21)Nc1ccccc1F`, the cell viability was 93%.
